Measurements reported in PubChem BioAssay AID652243 (Drosophila RNAi Screening Center, 2013)

Test: 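Fly regulators of androgen-dependent reporter output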 (primary screen)
Cell system: Drosophila S2R+ cells
Reagent: long dsRNA against Drosophila genes
Duration: 72 h (48 h, then 24 h hormone)
Conditions: synthetic androgen R1881 at 10 nM for 24 h
Measurement: 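Firefly light from an androgen-responsive reporter and Renilla control light per well, raw and unnormalised, for each of two replicates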
Direction: firefly reporter light: higher = more light from androgen-responsive reporter; Renilla control light: higher = more constitutive control signal (cell number, transfection)
Rule for the call: 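Across duplicate plates, a knock-down whose log firefly/Renilla ratio shifted a set fold down or up from the GFP/LacZ control mean was a hit; the downward cut appears as both 1.5 and 3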
Calls: active = hit: reporter lowered or raised; inactive = no hit
In all, the deposit lists about 24,000 reagents; shown is a random part of those that have a named target and a result. Of all reagents, 246 (1%) were called active. 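Plates not normalised; calls are printed but the firefly/Renilla ratio behind them is not deposited; fold cut for lowering reported inconsistently.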 Raw values vary from plate to plate and are shown uncorrected. A plus sign joins genes that one reagent is predicted to hit. Reagent sequences are not shown. Not given: the amount of reagent.

predicted target | amplicon | firefly reporter light, replicate 1 | firefly reporter light, replicate 2 | Renilla control light, replicate 1 | Renilla control light, replicate 2 | call
CG10914 | DRSC06010 | 65421 | 81506 | 1.47e6 | 1.47e6 | inactive
CG42505 + CG42504 + CG31358 | DRSC15235 | 45451 | 75524 | 6.40e5 | 7.15e5 | inactive
CG42505 + CG42504 + CG31358 | DRSC15308 | 3.30e5 | 4.40e5 | 2.21e6 | 3.14e6 | inactive
CG42505 + CG42504 + CG31358 | DRSC15309 | 1.37e5 | 1.74e5 | 2.12e6 | 2.06e6 | inactive
Kots | DRSC16581 | 40777 | 48950 | 3.10e5 | 4.43e5 | inactive
Or69a | DRSC11243 | 1.85e5 | 1.41e5 | 1.40e6 | 1.64e6 | inactive
Or69a | DRSC25967 | 3.35e5 | 4.09e5 | 9.68e5 | 9.87e5 | inactive
Sin3A | DRSC07552 | 4.27e5 | 4.29e5 | 1.02e6 | 9.80e5 | inactive
Sin3A | DRSC37642 | 2.25e5 | 2.43e5 | 1.13e6 | 1.18e6 | inactive
CG12299 | DRSC02158 | 1.28e6 | 5.44e5 | 1.12e6 | 7.60e5 | inactive
CG12299 | DRSC23611 | 1.38e6 | 1.32e6 | 1.29e6 | 1.44e6 | inactive
CG12299 | DRSC39017 | 6.61e5 | 4.08e5 | 1.97e6 | 1.01e6 | inactive
S2P | DRSC07311 | 2.53e5 | 1.93e5 | 8.84e5 | 1.25e6 | inactive
S2P | DRSC27864 | 9.41e5 | 6.24e5 | 2.79e6 | 1.47e6 | inactive
Ance-5 | DRSC04055 | 7.64e5 | 1.41e6 | 8.81e5 | 1.65e6 | inactive
Ance-5 | DRSC27189 | 3.17e5 | 3.19e5 | 5.32e5 | 5.41e5 | inactive
CG14416 | DRSC18639 | 4.31e5 | 5.96e5 | 2.86e6 | 3.40e6 | inactive
CG14416 | DRSC29804 | 7.49e5 | 5.15e5 | 1.40e6 | 1.28e6 | inactive
CG32640 + CG32641 | DRSC22885 | 5.37e5 | 8.34e5 | 26348 | 27458 | inactive
Su(dx) | DRSC00791 | 4.32e5 | 4.20e5 | 8.16e5 | 9.14e5 | inactive
Su(dx) | DRSC26192 | 3.38e5 | 2.99e5 | 5.33e5 | 5.23e5 | inactive
b6 | DRSC18740 | 3.88e5 | 4.27e5 | 3.75e6 | 3.28e6 | inactive
b6 | DRSC24064 | 8.47e5 | 8.03e5 | 1.34e6 | 1.35e6 | inactive
SCAP | DRSC04869 | 2.92e5 | 1.94e5 | 2.47e6 | 1.85e6 | inactive
SCAP | DRSC04907 | 3.57e5 | 2.42e5 | 1.78e6 | 1.10e6 | inactive
fzy | DRSC03534 | 1.81e5 | 2.05e5 | 1.29e6 | 1.17e6 | inactive
Hmx | DRSC15307 | 1.41e5 | 1.16e5 | 1.94e6 | 2.18e6 | inactive
Hmx | DRSC24958 | 6.60e5 | 6.84e5 | 1.08e6 | 1.09e6 | inactive
Hmx | DRSC25028 | 5.38e5 | 3.39e5 | 5.20e5 | 4.54e5 | inactive

Laid out differently: 4 of the entries above
{"predicted target":"fzy","amplicon":"DRSC03534","firefly reporter light, replicate 1":1.81e5,"firefly reporter light, replicate 2":2.05e5,"Renilla control light, replicate 1":1.29e6,"Renilla control light, replicate 2":1.17e6,"call":"inactive"}
{"predicted target":"Hmx","amplicon":"DRSC15307","firefly reporter light, replicate 1":1.41e5,"firefly reporter light, replicate 2":1.16e5,"Renilla control light, replicate 1":1.94e6,"Renilla control light, replicate 2":2.18e6,"call":"inactive"}
{"predicted target":"Hmx","amplicon":"DRSC24958","firefly reporter light, replicate 1":6.60e5,"firefly reporter light, replicate 2":6.84e5,"Renilla control light, replicate 1":1.08e6,"Renilla control light, replicate 2":1.09e6,"call":"inactive"}
{"predicted target":"Hmx","amplicon":"DRSC25028","firefly reporter light, replicate 1":5.38e5,"firefly reporter light, replicate 2":3.39e5,"Renilla control light, replicate 1":5.20e5,"Renilla control light, replicate 2":4.54e5,"call":"inactive"}

The listing continues.
predicted target | amplicon | firefly reporter light, replicate 1 | firefly reporter light, replicate 2 | Renilla control light, replicate 1 | Renilla control light, replicate 2 | call
CG32459 | DRSC11852 | 1.99e5 | 2.04e5 | 2.35e6 | 2.85e6 | inactive
CG10254 | DRSC14153 | 32068 | 26975 | 5.27e5 | 3.07e5 | inactive
CG10254 | DRSC29495 | 9.17e5 | 9.45e5 | 1.15e6 | 1.15e6 | inactive
CG1907 | DRSC15399 | 89630 | 89701 | 1.32e6 | 9.55e5 | active
dgt5 | DRSC07280 | 9.10e5 | 6.92e5 | 1.24e6 | 1.31e6 | inactive
dgt5 | DRSC29379 | 3.13e5 | 3.89e5 | 1.08e6 | 1.08e6 | inactive
Taf12 | DRSC16879 | 43403 | 82363 | 2.42e5 | 2.85e5 | inactive
Taf12 | DRSC28181 | 3.97e5 | 3.95e5 | 1.11e6 | 9.56e5 | inactive
CG17646 | DRSC00507 | 8.90e5 | 1.04e6 | 2.71e6 | 2.39e6 | inactive
CG2256 | DRSC18220 | 3.89e5 | 4.30e5 | 2.79e6 | 3.43e6 | inactive
CG2256 | DRSC28187 | 5.29e5 | 4.58e5 | 1.82e6 | 1.56e6 | inactive
CG17625 | DRSC15249 | 1.92e5 | 2.36e5 | 2.82e6 | 2.41e6 | inactive
CG18132 | DRSC00518 | 1.47e5 | 1.27e5 | 9.07e5 | 6.15e5 | inactive
CG15213 | DRSC10213 | 2.12e5 | 2.31e5 | 1.64e6 | 2.96e6 | inactive
CG32554 | DRSC22713 | 1.03e6 | 9.26e5 | 9.93e5 | 7.89e5 | inactive
CG32554 | DRSC29616 | 3.86e5 | 4.99e5 | 1.30e6 | 1.30e6 | inactive
Hil | DRSC05989 | 5.95e5 | 6.20e5 | 1.47e6 | 1.74e6 | inactive
Hil | DRSC06395 | 1.11e5 | 1.67e5 | 1.91e6 | 2.05e6 | inactive
br | DRSC17691 | 2.38e5 | 3.17e5 | 5.78e5 | 3.67e5 | inactive
br | DRSC17789 | 3.74e5 | 3.57e5 | 4.85e6 | 3.89e6 | inactive
br | DRSC25765 | 4.00e5 | 3.21e5 | 7.95e5 | 5.44e5 | inactive
RhoGAP19D | DRSC20499 | 98175 | 67714 | 4.05e5 | 5.50e5 | inactive
RhoGAP19D | DRSC20500 | 2.53e5 | 1.25e5 | 1.13e6 | 6.07e5 | inactive
Prp19 | DRSC07434 | 74689 | 72210 | 1.31e6 | 1.85e6 | inactive
Prp19 | DRSC23905 | 3.31e5 | 2.24e5 | 5.34e5 | 4.44e5 | inactive
Bmcp | DRSC10808 | 6.95e5 | 5.61e5 | 1.05e6 | 9.09e5 | inactive
CG2225 | DRSC03722 | 7.97e5 | 7.77e5 | 1.69e6 | 2.09e6 | inactive
CG2225 | DRSC03723 | 2.95e5 | 3.95e5 | 1.86e6 | 2.00e6 | inactive
CG12909 | DRSC06224 | 2.52e5 | 1.68e5 | 1.32e6 | 1.07e6 | inactive
CG12909 | DRSC27706 | 3.56e5 | 3.62e5 | 5.10e5 | 5.62e5 | inactive
CG31910 + snoRNA:Me28S-G2743 (retired record) | DRSC00946 | 1.86e5 | 1.24e5 | 5.74e5 | 3.50e5 | inactive
asRNA:CR43463 + Pgant35A | DRSC03557 | 4.96e5 | 4.47e5 | 2.94e6 | 2.64e6 | inactive
asRNA:CR43463 + Pgant35A | DRSC28249 | 3.56e5 | 5.05e5 | 7.09e5 | 1.33e6 | inactive
CG6191 | DRSC23127 | 7.12e5 | 7.13e5 | 9.85e5 | 9.56e5 | inactive
CG13252 | DRSC11700 | 1.93e5 | 2.19e5 | 2.80e6 | 2.92e6 | inactive
CG13252 | DRSC27577 | 2.41e5 | 3.01e5 | 4.48e5 | 6.54e5 | inactive
sol | DRSC20587 | 2.03e5 | 2.28e5 | 7.05e5 | 5.39e5 | inactive
sol | DRSC26252 | 2.60e5 | 2.14e5 | 6.33e5 | 7.35e5 | inactive
CG9471 | DRSC16499 | 78390 | 74252 | 1.75e6 | 1.41e6 | inactive
CG9471 | DRSC26334 | 3.21e5 | 3.20e5 | 7.06e5 | 6.78e5 | inactive
CG12782 | DRSC04127 | 1.99e5 | 2.95e5 | 1.51e6 | 9.47e5 | inactive
Rpt2 | DRSC16799 | 72134 | 69502 | 3.91e5 | 3.50e5 | inactive
Rpt2 | DRSC25012 | 3.51e5 | 3.52e5 | 3.16e5 | 3.91e5 | inactive
Ance-4 | DRSC07104 | 2.82e5 | 1.84e5 | 2.29e6 | 1.44e6 | inactive
CG33263 | DRSC10108 | 2.99e5 | 2.71e5 | 2.59e6 | 1.92e6 | inactive
